From patent US9763942B2, “Serine/threonine kinase inhibitors” (Array BioPharma Inc., priority 2013, dated 2017)
Some entries share one result that the patent states for a list of compounds.

The chains behind the UniProt entries cited, without tags or fusion partners. Residues count along the entry.
UniProt P28482, 8-360: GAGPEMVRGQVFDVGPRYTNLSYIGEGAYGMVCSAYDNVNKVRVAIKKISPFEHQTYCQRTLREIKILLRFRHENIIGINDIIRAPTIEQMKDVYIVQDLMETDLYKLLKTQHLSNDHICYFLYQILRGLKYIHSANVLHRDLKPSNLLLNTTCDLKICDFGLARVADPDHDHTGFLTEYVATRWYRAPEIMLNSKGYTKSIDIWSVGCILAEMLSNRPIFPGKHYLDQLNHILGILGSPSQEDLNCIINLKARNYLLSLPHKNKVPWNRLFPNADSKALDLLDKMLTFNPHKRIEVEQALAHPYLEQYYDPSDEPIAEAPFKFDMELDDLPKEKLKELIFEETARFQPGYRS

Biological target: T1, human ERK-2 (Mitogen Activated Kinase 1) (Homo sapiens, UniProt P28482)
T1 construct: n-terminal 6-His fusion protein in E. coli and corresponding to aa 8-360; 6-His (N); made in house; host or cells: E. coli
Test: ERK-2 Enzymatic Assay
Assay type: biochemical
Excerpt: Table 1 contains representative data for Examples disclosed herein.

SMILES	IC50 [µM]
Cn1nccc1Nc1nccc(-c2ccc3c(c2)nnn3Cc2cccc(F)c2F)n1 [Example 1, 4-(1-(2,3-difluorobenzyl)-1H-benzo[1,2,3]triazol-5-yl)-N-(1-methyl-1H-pyrazol-5-yl)pyrimidin-2-amine]	< 1
COc1cccnc1Cn1nnc2cc(-c3ccnc(Nc4ccnn4C)n3)ccc21 [Example 68, 4-(1-((3-methoxypyridin-2-yl)methyl)-1H-benzo[d][1,2,3]triazol-5-yl)-N-(1-methyl-1H-pyrazol-5-yl)pyrimidin-2-amine]	< 1
COc1ccc([C@@H](c2cnn(C)c2)n2nnc3cc(-c4ccnc(Nc5ccnn5C)n4)ccc32)cc1F [Example 70]	< 1
Cn1nccc1Nc1nccc(-c2ccc3c(c2)nnn3CC(F)F)n1 [Example 37, 4-(1-(2,2-difluoroethyl)-1H-benzo[d][1,2,3]triazol-5-yl)-N-(1-methyl-1H-pyrazol-5-yl)pyrimidin-2-amine]	< 1
COc1ccc(Cn2nnc3cc(-c4ccnc(NC(C)C)n4)ccc32)cc1F [Example 13, 4-(1-(3-fIuoro-4-methoxybenzyl)-1H-benzo[d][1,2,3]triazol-5-yl)-N-isopropylpyrimidin-2-amine]	< 1
Cn1nccc1Nc1nccc(-c2ccc3c(c2)nnn3CCCF)n1 [Example 40, 4-(1-(3-fluoropropyl)-1H-benzo[d][1,2,3]triazol-5-yl)-N-(1-methyl-1H-pyrazol-5-yl)pyrimidin-2-amine]	< 1
Cn1nccc1Cn1nnc2cc(-c3ccnc(Nc4ccnn4C)n3)ccc21 [Example 39, N-(1-methyl-1H-pyrazol-5-yl)-4-(1-((1-methyl-1H-pyrazol-5-yl)methyl)-1H-benzo[d][1,2,3]triazol-5-yl)pyrimidin-2-amine]	< 1
CCC(CC)Cn1nnc2cc(-c3ccnc(Nc4ccnn4C)n3)ccc21 [Example 28, 4-(1-(2-ethylbutyl)-1H-benzo[d][1,2,3]triazol-5-yl)-N(1-methyl-1H-pyrazol-5-yl)pyrimidin-2-amine]	< 1
CN1CC(Cn2nnc3cc(-c4ccnc(Nc5ccnn5C)n4)ccc32)C1 [Example 36, N-(1-methyl-1H-pyrazol-5-yl)-4-(1-((1-methylazetidin-3-yl)methyl)-1H-benzo[d][1,2,3]triazol-5-yl)pyrimidin-2-amine]	< 1
Cn1nccc1Nc1nccc(-c2ccc3c(c2)nnn3CCc2ccccc2Cl)n1 [Example 49, 4-(1-(2-chlorophenethyl)-1H-benzo-[d][1,2,3]triazol-5-yl)-N-(1-methyl-1H-pyrazol-5-yl)pyrimidin-2-amine]	< 1
COc1ncccc1Cn1nnc2cc(-c3ccnc(Nc4ccnn4C)n3)ccc21 [Example 67, 4-(1-((2-methoxypyridin-3-yl)methyl)-1H-benzo[d][1,2,3]triazol-5-yl)-N-(1-methyl-1H-pyrazol-5-yl)pyrimidin-2-amine]	< 1
COc1ccc(Cn2nnc3cc(-c4ccnc(Nc5ccnn5C)n4)ccc32)cc1 [Example 65, 4-(1-(4-methoxybenzyl)-1H-benzo[d][1,2,3]triazol-5-yl)-N-(1-methyl-1H-pyrazol-5-yl)pyrimidin-2-amine]	< 1
CCC(C)Cn1nnc2cc(-c3ccnc(Nc4ccnn4C)n3)ccc21 (centres unmarked) [Example 27]	< 1
Cn1nccc1Nc1cc(-c2ccc3c(c2)nnn3Cc2ccc(Cl)cc2)ccn1 [Example 55, 4-(1-(4-chlorobenzyl)-1H-benzo[d][1,2,3]triazol-5-yl)-N-(1-methyl-1H-pyrazol-5-yl)pyridin-2-amine]	< 1
Cn1nccc1Nc1nccc(-c2ccc3c(c2)nnn3[C@H]2CNCC(F)(F)C2)n1 [Example 79, (R)-4-(1-(5,5-difluoropiperidin-3-yl)-1H-benzo[d][1,2,3]triazol-5-yl)-N-(1-methyl-1H-pyrazol-5-yl)pyrimidin-2-amine]	< 1
COc1ccc(Cn2nnc3cc(-c4ccnc(Nc5cnn(C)c5)n4)ccc32)cc1F [Example 2, 4-(1-(3-fluoro-4-methoxybenzyl)-1H-benzo[d][1,2,3]triazol-5-yl)-N-(1-methyl-1H-pyrazol-4-yl)pyrimidin-2-amine]	< 1
CCN1C[C@@H](n2nnc3cc(-c4ccnc(Nc5ccnn5C)n4)ccc32)[C@H](c2ccc(F)c(F)c2)C1 [Example 77, 4-(1-((3S,4R)-4-(3,4-difluorophenyl)-1-ethylpyrrolidin-3-yl)-1H-benzo[d][1,2,3]triazol-5-yl)-N-(1-methyl-1H-pyrazol-5-yl)pyrimidin-2-amine]	< 1
COc1ccc([C@@H](c2nccn2C)n2nnc3cc(-c4ccnc(Nc5ccnn5C)n4)ccc32)cc1F [Example 72, (S)-4-(1-((3-fluoro-4-methoxyphenyl)(1-methyl-1H-imidazol-2-yl)methyl)-1H-benzo[d][1,2,3]triazol-5-yl)-N-(1-methyl-1H-pyrazol-5-yl)pyrimidin-2-amine]	< 1

Further lines, results first:

IC50 [µM]	SMILES
< 1	COc1cccc(F)c1CN1CC(n2nnc3cc(-c4ccnc(Nc5ccnn5C)n4)ccc32)C1 [Example 88, 4-(1-(1-(2-fluoro-6-methoxybenzyl)azetidin-3-yl)-1H-benzo[d][1,2,3]triazol-5-yl)-N-(1-methyl-1H-pyrazol-5-yl)pyrimidin-2-amine]
< 1	Cn1nccc1Nc1nccc(-c2ccc3c(c2)nnn3Cc2cccc(F)c2)n1 [Example 120, 4-(1-(3-fluorobenzyl)-1H-benzo[d][1,2,3]triazol-5-yl)-N-(1-methyl-1H-pyrazol-5-yl)pyrimidin-2-amine]
< 1	Cn1nccc1Nc1nccc(-c2ccc3c(c2)nnn3Cc2ccc(F)c(Cl)c2)n1 [Example 125, 4-(1-(3-chloro-4-fluorobenzyl)-1H-benzo[d][1,2,3]triazol-5-yl)-N-(1-methyl-1H-pyrazol-5-yl)pyrimidin-2-amine]
< 1	Cc1cnn(CCn2nnc3cc(-c4ccnc(Nc5ccnn5C)n4)ccc32)c1 [Example 103, 4-(1-(2-(4-methyl-1H-pyrazol-1-yl)ethyl)-1H-benzo[d][1,2,3]triazol-5-yl)-N-(1-methyl-1H-pyrazol-5-yl)pyrimidin-2-amine]
< 1	Cn1nccc1Nc1nccc(-c2ccc3c(c2)nnn3C2CNCCC2c2ccc(F)cc2)n1 (centres unmarked) [Example 90, 4-(1-(4-(4-fluorophenyl)piperidin-3-yl)-1H-benzo[d][1,2,3]triazol-5-yl)-N-(1-methyl-1H-pyrazol-5-yl)pyrimidin-2-amine]
< 1	CC(C)Cn1nnc2cc(-c3ccnc(Nc4cnn(C)n4)n3)ccc21 [Example 99, 4-(1-isobutyl-1H-benzo[d][1,2,3]triazol-5-yl)-N-(2-methyl-2H-1,2,3-triazol-4-yl)pyrimidin-2-amine]
< 1	COc1cccc(F)c1CN1CCC[C@@H](n2nnc3cc(-c4ccnc(Nc5ccnn5C)n4)ccc32)C1 [Example 105, (R)-4-(1-(1-(2-fluoro-6-methoxybenzyl)piperidin-3-yl)-1H-benzo[d][1,2,3]triazol-5-yl)-N-(1-methyl-1H-pyrazol-5-yl)pyrimidin-2-amine]
< 1	Cn1nccc1Nc1nccc(-c2ccc3c(c2)nnn3[C@@H](CO)c2ccc(Cl)c(F)c2)n1 [Example 94, (R)-2-(4-chloro-3-fluorophenyl)-2-(5-(2-((1-methyl-1H-pyrazol-5-yl)amino)pyrimidin-4-yl)-1H-benzo[d][1,2,3]triazol-1-yl)ethanol]
< 1	Cn1nccc1Nc1nccc(-c2ccc3c(c2)nnn3CCn2cccn2)n1 [Example 104, 4-(1-(2-(1H-pyrazol-1-yl)ethyl)-1H-benzo[d][1,2,3]triazol-5-yl)-N-(1-methyl-1H-pyrazol-5-yl)pyrimidin-2-amine]
< 1	Cn1nccc1Nc1nccc(-c2ccc3c(c2)nnn3Cc2ccc(Cl)c(F)c2)n1 [Example 108, 4-(1-(4-chloro-3-fluorobenzyl)-1H-benzo[d][1,2,3]triazol-5-yl)-N-(1-methyl-1H-pyrazol-5-yl)pyrimidin-2-amine]
< 1	Cn1nccc1Nc1nccc(-c2ccc3c(c2)nnn3[C@H](CO)c2ccc(Cl)c(F)c2)n1 [Example 93, (S)-2-(4-chloro-3-fluorophenyl)-2-(5-(2-((1-methyl-1H--pyrazol-5-yl)amino)pyrimidin-4-yl)-1H-benzo[d][1,2,3]triazol-1-yl)ethanol]
< 1	CC(C)Cn1nnc2cc(-c3ccnc(Nc4cnn(C)c4)n3)ccc21 [Example 97, 4-(1-isobutyl-1H-benzo[d][1,2,3]triazol-5-yl)-N-(1-methyl-1H-pyrazol-4-yl)pyrimidin-2-amine]
< 1	Fc1cccc(Cn2nnc3cc(-c4ccnc(NC5CCOCC5)n4)ccc32)c1 [Example 107, 4-(1-(3-fluorobenzyl)-1H-benzo[d][1,2,3]triazol-5-yl)-N-(tetrahydro-2H-pyran-4-yl)pyrimidin-2-amine]
< 1	Cn1nccc1Nc1nccc(-c2ccc3c(c2)nnn3C(CN2CCCC2)c2ccc(Cl)c(F)c2)n1 (centres unmarked) [Example 92, 4-(1-(1-(4-chloro-3-fluorophenyl)-2-(pyrrolidin-1-yl)ethyl)-1H-benzo[d][1,2,3]triazol-5-yl)-N-(1-methyl-1H-pyrazol-5-yl)pyrimidin-2-amine]
< 1	CN1CC(n2nnc3cc(-c4ccnc(Nc5ccnn5C)n4)ccc32)C1 [Example 86, N-(1-methyl-1H-pyrazol-5-yl)-4-(1-(1-methylazetidin-3-yl)-1H-benzo[d][1,2,3]triazol-5-yl)pyrimidin-2-amine]
< 1	COc1ncccc1Cn1nnc2cc(-c3ccnc(Nc4ccnn4C)n3)cnc21 [Example 126, 4-(3-((2-methoxypyridin-3-yl)methyl)-3H-[1,2,3]triazolo[4,5-b]pyridin-6-yl)-N-(1-methyl-1H-pyrazol-5-yl)pyrimidin-2-amine]
< 1	COc1ncc(F)cc1N1CC[C@H](n2nnc3cc(-c4ccnc(Nc5ccnn5C)n4)ccc32)C1 [Example 81, (S)-4-(1-(1-(5-fluoro-2-methoxypyridin-3-yl)pyrrolidin-3-yl)-1H-benzo[d][1,2,3]triazol-5-yl)-N-(1-methyl-1H-pyrazol-5-yl)pyrimidin-2-amine]
